{
  "sequences": {"note": "The chains behind the UniProt entries cited, without tags or fusion partners. Where a name states a change or a piece, a line headed by the entry shows the natural chain unless it says otherwise.", "UniProt Q99442": "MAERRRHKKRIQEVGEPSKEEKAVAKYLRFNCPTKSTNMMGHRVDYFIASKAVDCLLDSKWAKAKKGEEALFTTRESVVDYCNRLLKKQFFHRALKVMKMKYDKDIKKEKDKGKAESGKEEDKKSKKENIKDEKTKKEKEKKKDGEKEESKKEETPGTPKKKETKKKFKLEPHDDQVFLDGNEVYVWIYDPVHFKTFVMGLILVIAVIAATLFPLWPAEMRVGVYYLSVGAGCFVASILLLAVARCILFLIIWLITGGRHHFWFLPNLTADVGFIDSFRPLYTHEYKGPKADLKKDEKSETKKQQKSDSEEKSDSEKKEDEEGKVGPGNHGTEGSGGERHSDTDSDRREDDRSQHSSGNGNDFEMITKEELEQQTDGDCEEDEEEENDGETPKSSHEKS"},
  "source": "paper PMC9899268",
  "binders": {"B1": {"name": "FLAG-SEMA6A (protein, UniProt Q9H2E6 19-1030)", "chain": "GFPEDSEPISISHGNYTKQYPVFVGHKPGRNTTQRHRLDIQMIMIMNGTLYIAARDHIYTVDIDTSHTEEIYCSKKLTWKSRQADVDTCRMKGKHKDECHNFIKVLLKKNDDALFVCGTNAFNPSCRNYKMDTLEPFGDEFSGMARCPYDAKHANVALFADGKLYSATVTDFLAIDAVIYRSLGESPTLRTVKHDSKWLKEPYFVQAVDYGDYIYFFFREIAVEYNTMGKVVFPRVAQVCKNDMGGSQRVLEKQWTSFLKARLNCSVPGDSHFYFNILQAVTDVIRINGRDVVLATFSTPYNSIPGSAVCAYDMLDIASVFTGRFKEQKSPDSTWTPVPDERVPKPRPGCCAGSSSLERYATSNEFPDDTLNFIKTHPLMDEAVPSIFNRPWFLRTMVRYRLTKIAVDTAAGPYQNHTVVFLGSEKGIILKFLARIGNSGFLNDSLFLEEMSVYNSEKCSYDGVEDKRIMGMQLDRASSSLYVAFSTCVIKVPLGRCERHGKCKKTCIASRDPYCGWIKEGGACSHLSPNSRLTFEQDIERGNTDGLGDCHNSFVALNGHSSSLLPSTTTSDSTAQEGYESRGGMLDWKHLLDSPDSTDPLGAVSSHNHQDKKGVIRESYLKGHDQLVPVTLLAIAVILAFVMGAVFSGITVYCVCDHRRKDVAVVQRKEKELTHSRRGSMSSVTKLSGLFGDTQSKDPKPEAILTPLMHNGKLATPGNTAKMLIKADQHHLDLTALPTPESTPTLQQKRKPSRGSREWERNQNLINACTKDMPPMGSPVIPTDLPLRASPSHIPSVVVLPITQQGYQHEYVDQPKMSEVAQMALEDQAATLEYKTIKEHLSSKSPNHGVNLVENLDSLPPKVPQREASLGPPGASLSQTGLSKRLEMHHSSSYGVDYKRSYPTNSLTRSHQATTLKRNNTNSSNSSHLSRNQSFGRGDNPPPAPQRVDSIQVHSSQPSGQAVTVSRQPSLNAYNSLTRSGLKRTPSLKPDVPPKPSFAPLSTSMKPNDACT"}},
  "molecular_target": "GST-SEC62 (UniProt Q99442)",
  "experiment": "pull-down; GST or GST-SEC62 on glutathione-Sepharose beads; 20 mM HEPES pH 7.5, 5 mM MgCl2, 0.5 mM EDTA, 0.05% NP40, 1 mM DTT, 130 mM KCl, 0.2 mg/ml BSA; 1 mg FLAG-SEMA6A-transfected cell lysate added, room temperature 1 h; immunoblot; only the target purified",
  "note": "These are yes or no findings as the source states them, for the method shown. Binding seen in cells or lysates may run through a third protein. Binding calls can cover weak binding; strength is not graded here. Sequences can lack the tags named with a protein.",
  "data": [
    {"binder": "B1", "values": [
      {"measurement": "binding", "value": "binds"}
    ]}
  ]
}
